Data from PubChem BioAssay AID330 (DTP/NCI, 2004).
The list is a part of this screen's results and no random one: it gathers tests that were run many times, whatever their T/C, doses with no T/C, and many T/C values between a quarter and a half above the control. Further doses and runs are listed elsewhere. T/C gives the treated animals as a percentage of the vehicle group. Some entries give survivors of the animals treated and no T/C: the source holds a T/C of zero for them, seemingly a mark for toxic or unscored doses. Some survivor counts are full or nearly so, which does not show that the dose was tolerated: the source hardly ever lists a survival T/C far under the control, and the zero likely stands for such cases as well. Survivors were counted at the toxicity check, usually on the fifth day, unless a day is given; later deaths do not show. Schedule codes are those of the source, read here as Q, the interval in days (D) or hours (H), X, the number of doses. Some doses were run more than once; their values stand side by side, smallest first. For survival time, this PubChem deposit counts one and a half times the control or more as active, and values a quarter to a half above the control carry no call in these data; other NCI protocols may use other cut-offs. Marks such as (2×) say how often a value occurs here. Some T/C values carry the count of animals alive at the toxicity check (mostly the fifth day); where none is given, no animal had died by that day.

System: P388 leukemia ip, CD2F1 mice, survival T/C
Assay: NCI In Vivo Anticancer Drug Screen. Data for tumor model P388 Leukemia (intraperitoneal) in CD2F1 (CDF1) mice
Conditions: T/C endpoint: median survival time, higher T/C = longer survival
[1] = dose: 12.0 mg/kg/injection, schedule: Q04DX003 (ip), vehicle: saline

## COc1cccc2c1C(=O)c1c(O)c3c(c(O)c1C2=O)C[C@@](O)(C(=O)CO)C[C@@H]3OC1CC(N)C(O)C(C)O1 (some centres not stated)
dose: 10.0 mg/kg/injection, schedule: Q01DX001 (ip), vehicle: saline, evaluated on day 30
  T/C: 128, 144, 153, 158, 163, 168, 171, 173, 183, 185, 187, 188, 189, 191, 200, 202, 205, 207, 210 (3×), 211, 214, 215, 217, 218 (2×), 222, 223 (2×), 225, 227, 230, 233, 234, 236, 237 (2×), 238, 240 (2×), 242, 245 (2×), 247, 248 (2×), 250, 258, 267, 273, 274, 275, 277, 283, 294 % of control
dose: 10.0 mg/kg/injection, schedule: Q01DX001 (ip), vehicle: saline, evaluated on day 44
  T/C: 247 % of control
dose: 10.0 mg/kg/injection, schedule: Q01DX001 (ip), vehicle: saline, evaluated on day 45
  T/C: 166 [9 of 10 alive], 171, 177, 205, 214, 225, 233, 241, 268, 346 % of control
dose: 10.0 mg/kg/injection, schedule: Q01DX001 (ip), vehicle: saline, evaluated on day 46
  T/C: 196 % of control
dose: 10.0 mg/kg/injection, schedule: Q01DX001 (ip), vehicle: saline, evaluated on day 47
  T/C: 209 and 210 % of control
dose: 10.0 mg/kg/injection, schedule: Q01DX001 (ip), vehicle: saline, evaluated on day 56
  T/C: 238 % of control
dose: 10.0 mg/kg/injection, schedule: Q01DX001 (ip), vehicle: saline, evaluated on day 60
  T/C: 178, 193, 207, 234, 245, 252, 265, 267, 268, 285, 294 [9 of 10 alive], 321, 324, 348, 571 % of control
dose: 10.0 mg/kg/injection, schedule: Q01DX001 (ip), vehicle: saline
  survivor count: 0 of 6
dose: 10.0 mg/kg/injection, schedule: Q01DX001 (ip), vehicle: water, evaluated on day 5
  T/C: 130 % of control
dose: 10.0 mg/kg/injection, schedule: Q01DX001 (ip), vehicle: water, evaluated on day 30
  T/C: 209, 245, 315 % of control
dose: 10.0 mg/kg/injection, schedule: Q01DX001 (ip), vehicle: water, evaluated on day 45
  T/C: 142, 145, 176, 195, 208 [5 of 6 alive], 214, 225, 247 % of control
dose: 10.0 mg/kg/injection, schedule: Q04DX003 (ip), vehicle: saline, evaluated on day 8
  T/C: 194 % of control
dose: 10.0 mg/kg/injection, schedule: Q04DX003 (ip), vehicle: saline, evaluated on day 9
  T/C: 167 % of control
dose: 10.0 mg/kg/injection, schedule: Q04DX003 (ip), vehicle: saline, evaluated on day 45
  T/C: 90 and 97 % of control
dose: 10.0 mg/kg/injection, schedule: Q04DX003 (ip), vehicle: saline
  survivor count: 10 of 10 and 6 of 6
dose: 11.25 mg/kg/injection, schedule: Q01DX001 (iv), vehicle: saline
  T/C: 148 % of control
[1]
  T/C: 137, 148, 155 [survivors not given], 194 % of control [survivors not given]
  survivor count: 7 of 8
dose: 12.0 mg/kg/injection, schedule: Q04DX003 (ip), vehicle: water, evaluated on day 30
  T/C: 180 % of control
dose: 12.0 mg/kg/injection, schedule: Q04DX003 (ip), vehicle: water, evaluated on day 40
  T/C: 136 % of control
dose: 12.0 mg/kg/injection, schedule: Q04DX003 (ip), vehicle: water, evaluated on day 45
  T/C: 187 % of control
dose: 12.0 mg/kg/injection, schedule: Q04DX003 (ip), vehicle: water
  survivor count: 6 of 8
dose: 12.5 mg/kg/injection, schedule: Q01DX001 (ip), vehicle: saline, evaluated on day 5
  T/C: 260 and 297 % of control
dose: 12.5 mg/kg/injection, schedule: Q01DX001 (ip), vehicle: saline, evaluated on day 7
  T/C: 200 % of control
dose: 12.5 mg/kg/injection, schedule: Q01DX001 (ip), vehicle: saline, evaluated on day 9
  T/C: 173 % of control [8 of 9 alive]
dose: 12.5 mg/kg/injection, schedule: Q01DX001 (ip), vehicle: saline, evaluated on day 60
  T/C: 236, 284, 540, 545 % of control
dose: 12.5 mg/kg/injection, schedule: Q01DX001 (ip), vehicle: saline
  survivor count: 5 of 10
dose: 12.5 mg/kg/injection, schedule: Q01DX009 (ip), vehicle: water
  survivor count: 4 of 6
dose: 15.0 mg/kg/injection, schedule: Q01DX001 (ip), vehicle: saline, evaluated on day 5
  T/C: 156, 186, 557 % of control
dose: 15.0 mg/kg/injection, schedule: Q01DX001 (ip), vehicle: saline, evaluated on day 6
  T/C: 106 and 200 % of control
dose: 15.0 mg/kg/injection, schedule: Q01DX001 (ip), vehicle: saline, evaluated on day 7
  T/C: 198 % of control
dose: 15.0 mg/kg/injection, schedule: Q01DX001 (ip), vehicle: saline, evaluated on day 9
  T/C: 198 % of control (2×)
dose: 15.0 mg/kg/injection, schedule: Q01DX001 (ip), vehicle: saline, evaluated on day 11
  T/C: 162 % of control
dose: 15.0 mg/kg/injection, schedule: Q01DX001 (ip), vehicle: saline, evaluated on day 20
  T/C: 147 [2 of 4 alive] and 192 % of control
dose: 15.0 mg/kg/injection, schedule: Q01DX001 (ip), vehicle: saline, evaluated on day 23
  T/C: 214 % of control
dose: 15.0 mg/kg/injection, schedule: Q01DX001 (ip), vehicle: saline, evaluated on day 30
  T/C: 152, 156, 169, 173, 175, 183, 191, 191 [4 of 5 alive], 198, 200, 215 (2×), 217, 221, 222, 231, 236, 237, 239, 240, 242, 245 (2×), 247, 248, 250 (2×), 254 (2×), 255, 257, 260, 263, 264 (2×), 265, 267, 270, 272 (2×), 273, 274, 275, 277, 279, 283, 284, 288, 291, 294 (2×), 295, 297, 300, 306, 329 % of control
dose: 15.0 mg/kg/injection, schedule: Q01DX001 (ip), vehicle: saline, evaluated on day 44
  T/C: 419 % of control
dose: 15.0 mg/kg/injection, schedule: Q01DX001 (ip), vehicle: saline, evaluated on day 45
  T/C: 191, 200 [7 of 10 alive], 209, 255, 261, 405, 412 (2×), 432 % of control
dose: 15.0 mg/kg/injection, schedule: Q01DX001 (ip), vehicle: saline, evaluated on day 46
  T/C: 273 % of control
dose: 15.0 mg/kg/injection, schedule: Q01DX001 (ip), vehicle: saline, evaluated on day 47
  T/C: 275 and 289 % of control
dose: 15.0 mg/kg/injection, schedule: Q01DX001 (ip), vehicle: saline, evaluated on day 56
  T/C: 292 % of control
dose: 15.0 mg/kg/injection, schedule: Q01DX001 (ip), vehicle: saline, evaluated on day 60
  T/C: 248, 271, 273, 290, 304, 306, 317, 331 [9 of 10 alive], 392, 401, 545 [9 of 10 alive], 612 % of control
dose: 15.0 mg/kg/injection, schedule: Q01DX001 (ip), vehicle: saline
  survivor count: 0 of 6, 5 of 10, 6 of 10
dose: 15.0 mg/kg/injection, schedule: Q01DX001 (iv), vehicle: saline
  T/C: 146 % of control
dose: 16.0 mg/kg/injection, schedule: Q01DX001 (ip), vehicle: other
  survivor count: 1 of 10
dose: 16.0 mg/kg/injection, schedule: Q01DX001 (ip), vehicle: saline, evaluated on day 3
  T/C: 230 % of control
dose: 16.0 mg/kg/injection, schedule: Q01DX001 (ip), vehicle: saline, evaluated on day 5
  T/C: 68, 93, 96, 138, 182, 183, 201, 203 % of control
dose: 16.0 mg/kg/injection, schedule: Q01DX001 (ip), vehicle: saline, evaluated on day 7
  T/C: 77, 80 [2 of 4 alive], 89, 194 % of control
dose: 16.0 mg/kg/injection, schedule: Q01DX001 (ip), vehicle: saline, evaluated on day 9
  T/C: 183 and 212 % of control
dose: 16.0 mg/kg/injection, schedule: Q01DX001 (ip), vehicle: saline, evaluated on day 30
  T/C: 201 (2×) and 291 % of control
dose: 16.0 mg/kg/injection, schedule: Q01DX001 (ip), vehicle: saline, evaluated on day 35
  T/C: 190 % of control
dose: 16.0 mg/kg/injection, schedule: Q01DX001 (ip), vehicle: saline, evaluated on day 45
  T/C: 171 % of control
